Laboratory results as given in the supplement of paper PMC8426693.
Some of the results follow.

Tested on: SARS-CoV-2 frameshift pseudoknot (PK) RNA
Assay: NMR binding call after quantification (hit when 2 of 3 NMR criteria are met) (binary (1 = binding, 0 = not binding)); higher = binding
Conditions: RNA concentration 10 µM; fragment concentration 200 µM; 293 K

Question: How did the NMR binding call turn out when `Nc1cc(C(F)(F)F)ccc1N1CCCCC1` was run?
Answer: 0

Question: With `CS(=O)(=O)NCCc1ccccc1` as the compound, how does the NMR binding call read?
Answer: 0

Question: How did the NMR binding call turn out when `CC(=O)c1ccc(OCC(=O)O)cc1` was run?
Answer: 0

Question: How did the NMR binding call turn out when `c1nc(CN2CCNCC2)cs1` was run?
Answer: 0

Question: `Cc1nn(C)c(C)c1CC(N)=O` was tested. Which NMR binding call did it give?
Answer: 0

Question: For `CC(C)(C)CC(=O)Nc1ccc(F)cc1F`, which NMR binding call is on record?
Answer: 0

Question: How did the NMR binding call turn out when `O=C(O)c1ccccc1OC(F)(F)F` was run?
Answer: 0

Question: With `CC(=O)N1CCC(N)CC1` as the compound, how does the NMR binding call read?
Answer: 0

Question: Which NMR binding call does the source give for `CC(C)C(=O)Nc1ccc(N2CCCCC2)cc1` here?
Answer: 0

Question: Which NMR binding call does the source give for `Oc1ccccc1-c1nc(-c2ccccc2)no1` here?
Answer: 0

Question: `CNC1(C(N)=O)CCCC1` was tested. Which NMR binding call did it give?
Answer: 0

Question: How did the NMR binding call turn out when `Cc1ccc(-c2noc(CNC(C)C)n2)cc1` was run?
Answer: 0

Question: Which NMR binding call does the source give for `CNC(=O)c1cnc(C)s1` here?
Answer: 0

Question: For `Cc1cccc(C(=O)Nc2ccc(C)cc2O)c1`, which NMR binding call is on record?
Answer: 0

Question: `CC(=O)N1Cc2ccc(N)cc2C1` was tested. Which NMR binding call did it give?
Answer: 0

Question: How did the NMR binding call turn out when `CCNC(=O)c1ccc(N(C)C)c(F)c1` was run?
Answer: 0

Question: `Cc1ccccc1OCC(=O)Nc1ccccc1` was tested. Which NMR binding call did it give?
Answer: 1

Question: How did the NMR binding call turn out when `O=C(Cc1ccc(Cl)cc1)Nc1ncccn1` was run?
Answer: 0

Question: For `COc1ccc(Cl)cc1C(=O)NCC(C)C`, which NMR binding call is on record?
Answer: 0

Question: Which NMR binding call does the source give for `COc1ccccc1NC(=O)c1ccc(C)s1` here?
Answer: 0

Question: How did the NMR binding call turn out when `CC1CCNC(C(N)=O)C1` (stereo not given) was run?
Answer: 0

Question: Which NMR binding call does the source give for `O=C(Nc1ccc(N2CCOCC2)cc1)C1CC1` here?
Answer: 0

Question: Which NMR binding call does the source give for `CC(=O)Nc1cccc(F)c1C(=O)O` here?
Answer: 0

Question: How did the NMR binding call turn out when `CN(c1ccc(C(N)=O)nn1)C1CCC1` was run?
Answer: 0

Question: Which NMR binding call does the source give for `Nc1ncncc1-c1ccc(Cl)cc1` here?
Answer: 0

Question: With `CC(C)C(=O)Nc1cccc(C#N)c1` as the compound, how does the NMR binding call read?
Answer: 0

Question: For `CCc1nc(C2CCCN2)no1` (stereo not given), which NMR binding call is on record?
Answer: 0

Question: With `Cc1cc2ncn(CC(N)=O)c2cc1C` as the compound, how does the NMR binding call read?
Answer: 0

Question: For `O=C(c1c(F)cccc1F)N1CCCC1`, which NMR binding call is on record?
Answer: 0

Question: How did the NMR binding call turn out when `CC(=O)NCCc1ccc(S(N)(=O)=O)cc1` was run?
Answer: 0

Question: How did the NMR binding call turn out when `Cc1cc(F)ccc1CS(N)(=O)=O` was run?
Answer: 0

Question: Which NMR binding call does the source give for `CC1CN(C(=O)c2cnsn2)C(C)CO1` (stereo not given) here?
Answer: 0

Question: Which NMR binding call does the source give for `CCS(=O)(=O)N1CCC(C(=O)O)CC1` here?
Answer: 0

Question: Which NMR binding call does the source give for `CC1(S(=O)(=O)N2CCC=C(F)C2)CC1` here?
Answer: 0

Question: How did the NMR binding call turn out when `Cc1cc(NC(=O)CCC2CCCCC2)no1` was run?
Answer: 0

Question: `O=C(O)COCc1ccccc1` was tested. Which NMR binding call did it give?
Answer: 0

Question: How did the NMR binding call turn out when `CC1(C)CN(c2ncccc2F)CC1O` (stereo not given) was run?
Answer: 0

Question: For `O=C(Nc1ccc(F)cc1F)Nn1cnnc1`, which NMR binding call is on record?
Answer: 0

Question: How did the NMR binding call turn out when `CCc1nnc(NC(=O)c2cnccn2)s1` was run?
Answer: 0

Question: For `CCC(=O)NCc1nnc2n1CCCC2`, which NMR binding call is on record?
Answer: 0
